Measured values published in publication PMC10163288.
The list shows a part of the results.

B1: il2ra_site2_2erj_sap_23_mot_HHH_b2_01204_af2_000000056_0001_19_34_H_._HHH_b2_01294_af2_0001_0000400036_0000001_0_0001 (protein)
chain: SSSSSDKEEVQEEVEELLEEARHADLHEIYELLNEALRLAAELRDPELLRLVRRFMEEWSSSSSS
B2: il2ra_site1_3nfp_normal_mot_HHH_b1_07204_af2_000000238_0001_41_55_H_._3636d11ad4101c8d40e62ba374344ff5_0001_af2_0001_0000100006_0000001_1 (protein)
chain: SELKEEVKKALEEGNALLLSRLIRELARLLQEGDPEAHEVLELLLELARELGDPILERLLEDILK
B3: il2ra_site2_2erj_sap_15_mot_HHH_b2_06236_000000050_0001_39_52_H_._HHH_b2_05940_0001_0000600008_0000001_0_0001 (protein)
chain: SSSSDEAWEEVAELLARALEAFKNNDEELLEKLLEEARRIAEENNSEAAKRYVEFARRLTKSSSS
B4: il2ra_site1_3nfp_sap_15_mot_HHH_b1_01736_000000293_0001_24_39_H_._HHH_b2_04807_af2_0001_0000400020_0000001_0_0001_af2pred_0001_af2pred (protein)
chain: SSSSNAREELRELIRLVAELYRNGNPEEAREVAEEAIELARELNSPNARRFAELALEQLNSSSSS
B5: il2ra_site2_2erj_normal_mot_HHH_b2_01353_af2_000000049_0001_23_39_H_._HHH_b1_04468_af2_0001_0000300013_0000001_0 (protein)
chain: SSSSDEEEEAEELLREVKRLYEEGNPEEAEKLAREVSERLFRLGNFEFFAILAELVHRIARSSSS
B6: il2ra_site2_2erj_sap_12_mot_HHH_b1_05666_000000037_0001_42_55_H_._HHH_b2_06677_0001_0000400020_0000001_0_0001 (protein)
chain: SSSSDERLHELYKLANELLRLEFEGDEERIEELLQRVRELAEELKSDAARELVERVEKKLSSSSS
B7: il2ra_site1_1z92_normal_mot_9c3e5e2d2b9ffb70dc788f52fbfab6d5_0001_1_af2_000000019_0001_53_65_H_._1120a227123fe120892103896c8fe6e4_0001_1_0001_0000100002_0000001 … (protein)
chain: DAEEVLEEAAKLVKEGNPEEAKRLLEELVEKLGDPALRVLLKIVERLLREGDEERVHKLLHKLAR
B8: il2ra_site1_2b5i_normal_mot_HHH_b1_02271_000000068_0001_1_16_H_._HHH_b1_08571_af2_0001_0000500013_0000001_0_af2pred_dldesign_0_af2pred (protein)
chain: SSSSSDVLAEARRLYERARELKAAGKRREALELLEEAKKLADAADDEELQDRIEALAKEVSSSSS
B9: il2ra_site2_2erj_sap_21_mot_118502477c40609e6006f550458cdfaf_0001_af2_000000174_0001_16_29_H_._HHH_b1_00513_0001_0000200007_0000001_0_0001 (protein)
chain: SSSSSDEEREEILELLAEAAEIPDPEEVERLLREALELAREINDETLVRYIELALEHLEESSSSS
B10: il2ra_site1_3nfp_normal_mot_ems_3hM_3354_af2_000000165_0001_44_63_H_._HEEHE_2118_0001_0000200030_0000001_1 (protein)
chain: DFLEEFSKAVERVAEIVGVPHVSVSVSNGSVEVTFEGDDLQARAASKIVEEMARAAGIKVEVTVE
B11: il2ra_site2_3nfp_normal_mot_HHH_b1_05627_af2_000000038_0001_43_56_H_._HHH_b1_06090_0001_0000200013_0000001_0 (protein)
chain: SSSSDKREEYVEAALLAARLALEDGDPEIAEKHLEAALQLAEDIGNEELFEEIERLLRELRSSSS
B12: il2ra_site2_3nfp_normal_mot_HHH_b1_00660_af2_000000090_0001_40_57_H_._HHH_b1_04356_0001_0000200019_0000001_0 (protein)
chain: SSSSDRERVEELLEELKEAVERNDEELFRKLVREISNLIYEIGDFELFAILQELRFLFVQSSSSS
B13: il2ra_site1_3nfp_normal_mot_ems_3hM_3354_af2_000000165_0001_44_63_H_._HEEHE_2367_0001_0000200020_0000001_0 (protein)
chain: DEEEFEREIEKAIKRAARVDDVEVSVSNGRVEVTVNGNDVQARAALRIVELLVRSAGFEVTVTFE
B14: il2ra_site1_3nfp_sap_14_mot_HHH_b1_08149_af2_000000062_0001_43_57_H_._HHH_b1_02393_0001_0000400024_0000001_0_0001 (protein)
chain: SSSSDMQEIDRLLQEVMRLIANGNLEEAQELLERARELVEELGDELAKFLVEELEEHIKRRSSSS
B15: il2ra_site2_3nfp_normal_mot_HHH_b1_00660_af2_000000090_0001_40_57_H_._HHH_b1_07783_af2_0001_0000200003_0000001_0_af2pred_0001_1_af2pred_swapped (protein)
chain: SSSSSEEEEEAERLLERIERLLKEGDEEEAEKLLREVAQLINELENHELFAILLELFELVLSSSS
B16: il2ra_site2_2erj_normal_mot_HHH_b2_00789_000000198_0001_40_54_H_._HHH_b2_07923_0001_0000200011_0000001_1 (protein)
chain: SSSSSDEEVLELIAEAIELAHNGNPEEARRVLEEALELAQELNDPLFERYVELSLEDIRNSSSSS
B17: il2ra_site1_2b5i_normal_mot_ems_3hM_3687_af2_000000248_0001_45_64_H_._HHH_b1_06890_af2_0001_0000200008_0000001_0_af2pred_dldesign_0_af2pred (protein)
chain: SSSSSDFDAEFEAAVAEARRLKEAGKRREALKLLEELYKKASELGREEVEERLEELARELSSSSS
B18: il2ra_site2_3nfp_normal_mot_HHH_b1_07556_000000077_0001_42_55_H_._51cc31007119fa75359d0ea3f4aa2c22_0001_1_0001_0000100003_0000001_0 (protein)
chain: DLLEELRELVERLGNEELLVILFSAIADLINEDPEEAQRVLEELVRLLEEGNYEEAERLAREVLK
B19: il2ra_site1_3nfp_normal_mot_HHH_b1_04049_af2_000000244_0001_42_55_H_._HHH_b2_07296_0001_0000400014_0000001_0 (protein)
chain: SSSDESKEVQELLKEIIELLREGDEERVEELLEELKRIAHEANDPVAERLVRQYEKQVKLRFSSS
B20: il2ra_site1_2b5i_normal_mot_f5ff40796168375b462bec8614a1db4a_0001_1_000000138_0001_53_65_H_._HHH_b1_08222_0001_0000100001_0000001_0_af2pred_dldesign_0_af2pred (protein)
chain: SSSSSSRRELLEALIEEAKKLLEEGKNEEARKLLLLARRLARKMGDEERLAEIDALLEKVSSSSS
B21: il2ra_site2_2erj_sap_18_mot_HHH_b2_02773_000000031_0001_43_57_H_._HHH_b1_04639_af2_0001_0000300012_0000001_0_0001 (protein)
chain: SSSSDTELAHELLRFVYELAVKLGLSLEQLEELAELLQELLERGVSEEEAEEELRKLAEELSSSS
B22: il2ra_site2_2erj_normal_mot_HHH_b2_06726_000000006_0001_1_16_H_._HHH_b1_04199_0001_0000300043_0000001_1_af2pred_0001_af2pred (protein)
chain: SSSSSSEYREEIEELIEEARRVDEEEAVALLAEAAFLAVRNKDEEIFREVAELSLELYRRSSSSS
B23: il2ra_site2_3nfp_sap_32_mot_HHH_b1_04747_af2_000000013_0001_38_56_H_._d2d2be67f51fdd0abb6cd2a96bdf45ff_0001_1_0001_0000100002_0000001_0_0001 (protein)
chain: SSSSDTREFAEEVAERLRELRKEGNEEELRELLARAIHYVWERRDSEAYAILAQVAFKLHSSSSS
B24: il2ra_site1_1z92_normal_mot_HHH_b1_01245_000000029_0001_23_39_H_._HHH_b1_02142_0001_0000100011_0000001_0_af2pred_0001_af2pred (protein)
chain: SSSSDEERAAKTAVRIIAEAAGLSEEQQEELEKLAEELVERGLSLLEIKRELIKIAAKLLSSSSS

biological target: il2ra, P01589; experiment: yeast display titration

Apparent Kd, inactive:
B1 no binding seen
B2 no binding seen
B3 no binding seen
B4 no binding seen
B5 no binding seen
B6 no binding seen
B7 no binding seen
B8 no binding seen
B9 no binding seen
B10 no binding seen
B11 no binding seen
B12 no binding seen
B13 no binding seen
B14 no binding seen
B15 no binding seen
B16 no binding seen
B17 no binding seen
B18 no binding seen
B19 no binding seen
B20 no binding seen
B21 no binding seen
B22 no binding seen
B23 no binding seen
B24 no binding seen

Pulled one by one from the entries so far:
Apparent Kd, inactive:
B19 no binding seen
B2 no binding seen
